Drawing on the supplement of paper PMC6411743, this text covers NP40-soluble protein abundance for 37 targets.

Sequences of proteins named here, by UniProt entry; tags and fusion partners are left off. A change or cut given only in a name is not applied to a line headed by its entry.
UniProt O75348, whole entry: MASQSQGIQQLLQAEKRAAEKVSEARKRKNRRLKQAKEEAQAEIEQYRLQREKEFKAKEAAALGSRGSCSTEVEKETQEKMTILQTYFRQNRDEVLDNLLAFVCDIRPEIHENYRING
UniProt O75368: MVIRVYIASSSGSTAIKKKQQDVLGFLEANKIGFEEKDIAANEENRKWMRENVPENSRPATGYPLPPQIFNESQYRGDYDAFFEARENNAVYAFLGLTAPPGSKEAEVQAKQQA
UniProt O75145: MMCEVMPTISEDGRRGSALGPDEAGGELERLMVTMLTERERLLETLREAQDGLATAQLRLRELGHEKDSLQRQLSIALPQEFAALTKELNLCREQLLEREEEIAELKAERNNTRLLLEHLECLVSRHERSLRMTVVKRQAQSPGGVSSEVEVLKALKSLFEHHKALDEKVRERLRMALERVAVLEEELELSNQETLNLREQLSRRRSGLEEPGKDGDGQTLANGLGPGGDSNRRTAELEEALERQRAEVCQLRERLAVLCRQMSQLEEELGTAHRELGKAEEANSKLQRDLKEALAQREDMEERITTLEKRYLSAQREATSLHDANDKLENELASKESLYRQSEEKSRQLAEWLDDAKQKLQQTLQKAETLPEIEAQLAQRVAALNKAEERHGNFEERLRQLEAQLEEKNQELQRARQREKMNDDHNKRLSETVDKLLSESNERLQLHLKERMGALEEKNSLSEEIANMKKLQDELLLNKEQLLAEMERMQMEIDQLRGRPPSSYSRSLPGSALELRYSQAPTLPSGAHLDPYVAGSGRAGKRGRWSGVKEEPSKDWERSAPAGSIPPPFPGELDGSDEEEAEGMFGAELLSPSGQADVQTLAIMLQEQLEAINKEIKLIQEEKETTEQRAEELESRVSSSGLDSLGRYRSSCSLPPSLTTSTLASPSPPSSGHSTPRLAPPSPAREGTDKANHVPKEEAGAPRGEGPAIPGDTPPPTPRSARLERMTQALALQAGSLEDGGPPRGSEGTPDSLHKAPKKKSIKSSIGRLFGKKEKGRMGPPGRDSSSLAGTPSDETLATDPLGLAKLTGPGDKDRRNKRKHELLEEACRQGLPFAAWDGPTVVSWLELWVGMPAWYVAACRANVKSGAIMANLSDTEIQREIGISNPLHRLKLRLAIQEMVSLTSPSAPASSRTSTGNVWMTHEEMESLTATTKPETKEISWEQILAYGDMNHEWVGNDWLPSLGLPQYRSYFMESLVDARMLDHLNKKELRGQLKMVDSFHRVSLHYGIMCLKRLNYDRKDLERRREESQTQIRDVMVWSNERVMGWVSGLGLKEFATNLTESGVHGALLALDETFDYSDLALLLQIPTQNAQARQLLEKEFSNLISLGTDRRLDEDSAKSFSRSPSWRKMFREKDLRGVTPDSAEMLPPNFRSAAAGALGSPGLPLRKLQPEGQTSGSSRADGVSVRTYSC
UniProt O95696: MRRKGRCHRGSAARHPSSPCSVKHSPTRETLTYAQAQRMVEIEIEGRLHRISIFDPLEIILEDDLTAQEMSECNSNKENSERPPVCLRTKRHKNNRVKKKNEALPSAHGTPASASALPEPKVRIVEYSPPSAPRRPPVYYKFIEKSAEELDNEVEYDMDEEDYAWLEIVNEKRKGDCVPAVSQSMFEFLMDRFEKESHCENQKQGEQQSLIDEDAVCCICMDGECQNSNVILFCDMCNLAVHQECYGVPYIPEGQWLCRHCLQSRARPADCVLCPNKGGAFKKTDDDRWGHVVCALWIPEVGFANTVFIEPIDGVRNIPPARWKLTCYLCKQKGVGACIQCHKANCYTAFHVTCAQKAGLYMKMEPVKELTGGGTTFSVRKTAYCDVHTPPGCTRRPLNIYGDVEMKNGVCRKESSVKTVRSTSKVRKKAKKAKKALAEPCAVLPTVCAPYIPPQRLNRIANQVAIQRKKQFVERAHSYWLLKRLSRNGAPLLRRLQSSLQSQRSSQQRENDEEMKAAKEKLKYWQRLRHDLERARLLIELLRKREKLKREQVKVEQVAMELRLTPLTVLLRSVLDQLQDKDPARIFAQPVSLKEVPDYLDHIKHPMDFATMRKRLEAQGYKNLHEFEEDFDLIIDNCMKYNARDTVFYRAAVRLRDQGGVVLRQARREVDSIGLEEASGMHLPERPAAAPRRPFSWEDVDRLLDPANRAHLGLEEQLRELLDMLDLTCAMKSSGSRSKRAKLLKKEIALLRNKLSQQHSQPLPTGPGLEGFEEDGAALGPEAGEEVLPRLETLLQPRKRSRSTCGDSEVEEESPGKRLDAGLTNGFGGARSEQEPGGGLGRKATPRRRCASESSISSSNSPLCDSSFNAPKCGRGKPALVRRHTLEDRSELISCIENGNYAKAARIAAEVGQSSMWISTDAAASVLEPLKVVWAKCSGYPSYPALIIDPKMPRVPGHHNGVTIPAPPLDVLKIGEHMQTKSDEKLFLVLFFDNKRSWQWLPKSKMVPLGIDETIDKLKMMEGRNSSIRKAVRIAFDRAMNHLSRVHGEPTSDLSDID
UniProt O94766: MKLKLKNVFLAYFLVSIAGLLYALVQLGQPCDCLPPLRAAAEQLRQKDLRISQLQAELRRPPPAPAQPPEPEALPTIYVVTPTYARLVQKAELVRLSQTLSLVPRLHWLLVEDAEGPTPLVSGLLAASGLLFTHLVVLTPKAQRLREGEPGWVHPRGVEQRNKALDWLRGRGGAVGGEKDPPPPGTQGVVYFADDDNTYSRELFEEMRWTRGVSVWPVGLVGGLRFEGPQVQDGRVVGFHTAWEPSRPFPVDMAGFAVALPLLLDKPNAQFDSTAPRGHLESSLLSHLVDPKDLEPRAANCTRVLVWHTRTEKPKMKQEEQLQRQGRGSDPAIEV
UniProt O95786: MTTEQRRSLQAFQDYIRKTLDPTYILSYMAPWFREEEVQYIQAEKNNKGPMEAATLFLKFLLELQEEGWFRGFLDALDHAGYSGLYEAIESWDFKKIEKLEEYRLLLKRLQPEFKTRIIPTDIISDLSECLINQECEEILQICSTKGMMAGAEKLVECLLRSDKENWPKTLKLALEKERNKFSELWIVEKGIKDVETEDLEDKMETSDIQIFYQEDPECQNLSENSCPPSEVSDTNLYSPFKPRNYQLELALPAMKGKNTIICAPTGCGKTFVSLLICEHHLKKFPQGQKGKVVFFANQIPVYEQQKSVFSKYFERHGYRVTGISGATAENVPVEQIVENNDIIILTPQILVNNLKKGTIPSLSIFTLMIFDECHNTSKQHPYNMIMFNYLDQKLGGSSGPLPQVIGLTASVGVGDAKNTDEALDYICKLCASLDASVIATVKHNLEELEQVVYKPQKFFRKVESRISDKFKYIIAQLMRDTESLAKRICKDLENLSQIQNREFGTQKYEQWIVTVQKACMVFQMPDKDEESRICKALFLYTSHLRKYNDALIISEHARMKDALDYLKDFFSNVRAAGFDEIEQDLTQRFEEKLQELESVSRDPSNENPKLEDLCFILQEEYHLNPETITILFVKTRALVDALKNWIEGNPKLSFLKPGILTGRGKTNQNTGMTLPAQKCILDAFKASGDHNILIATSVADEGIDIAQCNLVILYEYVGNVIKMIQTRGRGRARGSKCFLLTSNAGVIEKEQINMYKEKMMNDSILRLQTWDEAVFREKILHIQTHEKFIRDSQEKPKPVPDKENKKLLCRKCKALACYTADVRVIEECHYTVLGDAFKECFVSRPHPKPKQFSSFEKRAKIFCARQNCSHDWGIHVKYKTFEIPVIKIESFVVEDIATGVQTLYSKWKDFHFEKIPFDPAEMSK
UniProt O75643, whole entry: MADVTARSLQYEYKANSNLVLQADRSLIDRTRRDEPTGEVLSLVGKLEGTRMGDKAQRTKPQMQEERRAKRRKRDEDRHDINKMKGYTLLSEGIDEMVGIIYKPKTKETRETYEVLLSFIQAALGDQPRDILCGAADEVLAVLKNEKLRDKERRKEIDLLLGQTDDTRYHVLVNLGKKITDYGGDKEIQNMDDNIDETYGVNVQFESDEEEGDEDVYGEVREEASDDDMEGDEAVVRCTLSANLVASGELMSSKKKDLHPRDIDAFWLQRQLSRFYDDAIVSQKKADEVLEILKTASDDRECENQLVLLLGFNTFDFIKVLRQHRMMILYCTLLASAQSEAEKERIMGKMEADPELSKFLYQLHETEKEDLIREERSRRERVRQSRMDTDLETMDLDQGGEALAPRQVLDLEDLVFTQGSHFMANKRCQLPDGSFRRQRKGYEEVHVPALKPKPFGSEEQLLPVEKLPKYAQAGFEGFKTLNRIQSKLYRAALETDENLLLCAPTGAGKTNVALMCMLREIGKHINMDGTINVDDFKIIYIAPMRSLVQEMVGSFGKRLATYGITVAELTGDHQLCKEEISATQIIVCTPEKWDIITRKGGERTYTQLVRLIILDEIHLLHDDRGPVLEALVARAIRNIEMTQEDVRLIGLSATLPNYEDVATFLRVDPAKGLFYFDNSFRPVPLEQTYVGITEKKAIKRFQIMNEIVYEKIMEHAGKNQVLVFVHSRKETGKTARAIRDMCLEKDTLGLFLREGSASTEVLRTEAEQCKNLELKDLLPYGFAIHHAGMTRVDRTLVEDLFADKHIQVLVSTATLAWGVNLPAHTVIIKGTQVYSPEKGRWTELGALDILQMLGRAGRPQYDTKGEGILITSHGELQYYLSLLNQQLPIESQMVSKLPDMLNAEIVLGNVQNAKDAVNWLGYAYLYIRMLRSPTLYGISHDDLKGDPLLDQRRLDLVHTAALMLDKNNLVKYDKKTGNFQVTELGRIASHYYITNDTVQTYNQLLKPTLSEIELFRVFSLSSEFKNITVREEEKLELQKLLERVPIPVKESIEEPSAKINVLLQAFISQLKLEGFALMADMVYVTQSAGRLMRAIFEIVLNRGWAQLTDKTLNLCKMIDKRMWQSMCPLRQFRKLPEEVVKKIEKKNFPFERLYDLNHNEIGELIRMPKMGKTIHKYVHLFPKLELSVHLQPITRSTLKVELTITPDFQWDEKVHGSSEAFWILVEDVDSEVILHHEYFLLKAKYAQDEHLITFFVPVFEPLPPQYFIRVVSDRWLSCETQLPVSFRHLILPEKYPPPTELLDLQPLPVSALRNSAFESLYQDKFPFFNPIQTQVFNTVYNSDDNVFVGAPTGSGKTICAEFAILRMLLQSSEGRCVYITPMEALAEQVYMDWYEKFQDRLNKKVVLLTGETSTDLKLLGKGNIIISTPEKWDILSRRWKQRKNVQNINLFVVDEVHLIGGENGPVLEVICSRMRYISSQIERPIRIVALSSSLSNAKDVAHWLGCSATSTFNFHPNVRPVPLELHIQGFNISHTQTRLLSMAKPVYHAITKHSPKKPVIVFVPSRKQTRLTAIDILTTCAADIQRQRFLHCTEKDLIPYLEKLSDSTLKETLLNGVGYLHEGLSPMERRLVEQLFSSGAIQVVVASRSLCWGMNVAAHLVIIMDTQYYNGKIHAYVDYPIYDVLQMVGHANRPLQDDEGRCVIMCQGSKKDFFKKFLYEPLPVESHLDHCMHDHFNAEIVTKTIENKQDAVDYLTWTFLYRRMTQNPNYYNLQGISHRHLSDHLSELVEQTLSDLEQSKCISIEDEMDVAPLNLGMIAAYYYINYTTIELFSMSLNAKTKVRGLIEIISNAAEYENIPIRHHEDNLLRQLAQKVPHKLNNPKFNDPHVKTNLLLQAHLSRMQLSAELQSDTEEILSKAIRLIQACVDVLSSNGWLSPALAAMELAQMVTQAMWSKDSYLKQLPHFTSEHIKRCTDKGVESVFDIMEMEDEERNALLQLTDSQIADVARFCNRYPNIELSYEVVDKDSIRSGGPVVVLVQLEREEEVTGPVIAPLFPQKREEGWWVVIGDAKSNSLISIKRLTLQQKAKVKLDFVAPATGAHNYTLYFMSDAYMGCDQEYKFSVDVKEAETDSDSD
UniProt P48735: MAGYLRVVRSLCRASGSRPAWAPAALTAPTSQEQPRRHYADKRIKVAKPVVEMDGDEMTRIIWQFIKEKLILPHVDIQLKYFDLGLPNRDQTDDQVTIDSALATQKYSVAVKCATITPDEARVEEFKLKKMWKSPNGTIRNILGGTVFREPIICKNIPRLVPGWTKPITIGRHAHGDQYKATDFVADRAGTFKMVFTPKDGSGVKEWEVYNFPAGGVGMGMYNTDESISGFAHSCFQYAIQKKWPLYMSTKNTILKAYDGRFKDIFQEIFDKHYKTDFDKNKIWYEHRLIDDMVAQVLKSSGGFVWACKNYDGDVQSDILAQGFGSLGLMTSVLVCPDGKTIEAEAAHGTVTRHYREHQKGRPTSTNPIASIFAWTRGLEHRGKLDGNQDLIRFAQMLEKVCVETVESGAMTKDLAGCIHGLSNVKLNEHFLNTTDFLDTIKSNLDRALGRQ
UniProt O75340: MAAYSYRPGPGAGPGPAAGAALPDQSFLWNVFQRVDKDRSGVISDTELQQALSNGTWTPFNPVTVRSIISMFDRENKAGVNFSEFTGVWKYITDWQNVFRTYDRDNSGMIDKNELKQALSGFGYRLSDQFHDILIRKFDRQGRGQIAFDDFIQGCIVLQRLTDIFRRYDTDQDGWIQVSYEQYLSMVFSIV

± gives the standard deviation of the averaged measurements. Some of the results follow.

Compound in one test: Nc1nc2c(ncn2[C@@H]2O[C@H](COP(=O)(O)OP(=O)(O)OP(=O)(O)O)[C@@H](O)[C@H]2O)c(=O)[nH]1 [guanosine triphosphate]
Briefly: NP40-soluble protein abundance relative to vehicle (solubility fold change) (ratio); higher = more soluble protein in presence of GTP. Conditions: concentration: 8mM. Summed up: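 Jurkat crude lysate prepared with a Dounce homogeniser was treated at eight concentrations spanning 0.1 to 10 mM, 10 min at room temperature then 3 min at 37 °C. Solubilisation with 0.8% NP40 and benzonase and ultracentrifugation preceded TMT labelling of the supernatant for LC-MS/MS. Fold change against the detergent-processed vehicle was determined per replicate from vsn-normalised intensities, across three independent experiments.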
ATP6V1G1 (UniProt O75348): the NP40-soluble protein abundance was 1.06 ± 0.11.

For the target GRAP2 (UniProt O75791), the NP40-soluble protein abundance stood at 0.879 ± 0.062.

With TXNDC12 (UniProt O95881), the NP40-soluble protein abundance was 0.948 ± 0.12.

For KATNA1 (UniProt O75449), the NP40-soluble protein abundance stood at 1.01 ± 0.023.

Take UniProt O75947: the NP40-soluble protein abundance was 1.14 ± 0.17.

CTSV (UniProt O60911): the NP40-soluble protein abundance amounted to 0.987 ± 0.047.

ZBED4 (UniProt O75132): the NP40-soluble protein abundance turned out to be 0.998 ± 0.059.

With UniProt O75190-2|O75190-4|O75190, the NP40-soluble protein abundance worked out at 1.21 ± 0.084.

For the target SH3BGRL (UniProt O75368), the NP40-soluble protein abundance worked out at 0.884 ± 0.15.

For the target UniProt O75145 and related entries, the NP40-soluble protein abundance was found to be 1.01 ± 0.072.

UniProt O75964: the NP40-soluble protein abundance amounted to 0.813 ± 0.099.

Consider TK1 (UniProt P04183), for which the NP40-soluble protein abundance stood at 0.974 ± 0.045.

As for UniProt O95551 and related entries, the NP40-soluble protein abundance was 0.899 ± 0.086.

Take UniProt O95696 and related entries: the NP40-soluble protein abundance was determined as 1.08 ± 0.17.

On to UniProt O94766 and related entries, for which the NP40-soluble protein abundance was determined as 0.984 ± 0.048.

Turning to STAMBP (UniProt O95630), the NP40-soluble protein abundance was 0.878 ± 0.083.

Consider UniProt O95786 and related entries, for which the NP40-soluble protein abundance worked out at 0.903 ± 0.062.

For the target UniProt O75164, the NP40-soluble protein abundance amounted to 0.927 ± 0.045.

For the target SNX4 (UniProt O95219), the NP40-soluble protein abundance is 0.983 ± 0.086.

As to EIF2S1 (UniProt P05198), the NP40-soluble protein abundance is 0.944 ± 0.054.

Turning to TYMS (UniProt P04818), the NP40-soluble protein abundance came to 0.831 ± 0.057.

For SNRNP200 (UniProt O75643), the NP40-soluble protein abundance came to 1.36 ± 0.24.

For the target NDUFA7 (UniProt O95182), the NP40-soluble protein abundance turned out to be 1.38 ± 0.2.

Turning to NPM3 (UniProt O75607), the NP40-soluble protein abundance turned out to be 1.15 ± 0.077.

On to UniProt O75928 and related entries, for which the NP40-soluble protein abundance stood at 0.968 ± 0.02.

For BANF1 (UniProt O75531), the NP40-soluble protein abundance amounted to 4.35 ± 2.

For KIF4A (UniProt O95239), the NP40-soluble protein abundance came to 1.03 ± 0.037.

Turning to P0619_C544|P48735 (UniProt P48735), the NP40-soluble protein abundance is 0.893 ± 0.03.

In the case of WDHD1 (UniProt O75717), the NP40-soluble protein abundance is 0.985 ± 0.056.

Consider ROCK2 (UniProt O75116), for which the NP40-soluble protein abundance came to 0.977 ± 0.06.

Regarding IPO7 (UniProt O95373), the NP40-soluble protein abundance came to 0.919 ± 0.043.

In the case of UniProt O75396, the NP40-soluble protein abundance is 0.817 ± 0.047.

For the target PDCD6 (UniProt O75340), the NP40-soluble protein abundance was determined as 0.884 ± 0.077.

As to FUCA1 (UniProt P04066), the NP40-soluble protein abundance worked out at 0.942 ± 0.29.

As to RPLP2 (UniProt P05387), the NP40-soluble protein abundance was found to be 1 ± 0.11.

Take UTP20 (UniProt O75691): the NP40-soluble protein abundance was found to be 1.34 ± 0.18.

With UniProt O75170 and related entries, the NP40-soluble protein abundance was 0.963 ± 0.065.

The test is the same for the next values; noted with them: concentration: 10mM.
In the case of ATP6V1G1 (UniProt O75348), the NP40-soluble protein abundance came to 1.1 ± 0.035.

Take GRAP2 (UniProt O75791): the NP40-soluble protein abundance was found to be 0.844 ± 0.084.

As for TXNDC12 (UniProt O95881), the NP40-soluble protein abundance is 0.934 ± 0.089.

As to KATNA1 (UniProt O75449), the NP40-soluble protein abundance came out at 0.946 ± 0.02.

For UniProt O75947, the NP40-soluble protein abundance came to 1.17 ± 0.2.

With CTSV (UniProt O60911), the NP40-soluble protein abundance was found to be 1.02 ± 0.045.

Consider ZBED4 (UniProt O75132), for which the NP40-soluble protein abundance was determined as 0.993 ± 0.015.

Turning to UniProt O75190-2|O75190-4|O75190, the NP40-soluble protein abundance is 1.09 ± 0.069.

For the target SH3BGRL (UniProt O75368), the NP40-soluble protein abundance came to 0.89 ± 0.11.

For UniProt O75145 and related entries, the NP40-soluble protein abundance was 1 ± 0.03.

For UniProt O75964, the NP40-soluble protein abundance was 0.868 ± 0.047.

On to TK1 (UniProt P04183), for which the NP40-soluble protein abundance turned out to be 0.966 ± 0.036.

In the case of UniProt O95551 and related entries, the NP40-soluble protein abundance came to 0.89 ± 0.079.

Consider UniProt O95696 and related entries, for which the NP40-soluble protein abundance is 1.18 ± 0.14.

For UniProt O94766 and related entries, the NP40-soluble protein abundance was 0.958 ± 0.033.

As to STAMBP (UniProt O95630), the NP40-soluble protein abundance was determined as 0.802 ± 0.065.

Take UniProt O95786 and related entries: the NP40-soluble protein abundance came out at 0.891 ± 0.053.

For UniProt O75164, the NP40-soluble protein abundance is 0.905 ± 0.082.

On to SNX4 (UniProt O95219), for which the NP40-soluble protein abundance came to 0.9 ± 0.052.

Take EIF2S1 (UniProt P05198): the NP40-soluble protein abundance came to 0.923 ± 0.048.

For TYMS (UniProt P04818), the NP40-soluble protein abundance turned out to be 0.844 ± 0.057.

Consider SNRNP200 (UniProt O75643), for which the NP40-soluble protein abundance turned out to be 1.37 ± 0.2.

For NDUFA7 (UniProt O95182), the NP40-soluble protein abundance turned out to be 1.44 ± 0.31.

Consider NPM3 (UniProt O75607), for which the NP40-soluble protein abundance was determined as 1.09 ± 0.099.

On to UniProt O75928 and related entries, for which the NP40-soluble protein abundance came to 1.01 ± 0.041.

Turning to BANF1 (UniProt O75531), the NP40-soluble protein abundance came out at 5.71 ± 3.2.

Take KIF4A (UniProt O95239): the NP40-soluble protein abundance was 1 ± 0.027.

With P0619_C544|P48735 (UniProt P48735), the NP40-soluble protein abundance was found to be 0.875 ± 0.045.

As to WDHD1 (UniProt O75717), the NP40-soluble protein abundance was determined as 0.953 ± 0.035.

Turning to ROCK2 (UniProt O75116), the NP40-soluble protein abundance is 0.979 ± 0.078.

With IPO7 (UniProt O95373), the NP40-soluble protein abundance turned out to be 0.923 ± 0.021.

UniProt O75396: the NP40-soluble protein abundance is 0.827 ± 0.074.

In the case of PDCD6 (UniProt O75340), the NP40-soluble protein abundance came out at 0.927 ± 0.089.

For FUCA1 (UniProt P04066), the NP40-soluble protein abundance was 0.855 ± 0.088.

Regarding RPLP2 (UniProt P05387), the NP40-soluble protein abundance turned out to be 1.2 ± 0.14.

On to UTP20 (UniProt O75691), for which the NP40-soluble protein abundance was found to be 1.29 ± 0.29.

Consider UniProt O75170 and related entries, for which the NP40-soluble protein abundance stood at 1.05 ± 0.075.
